Laboratory results published in US20220348651A1, “ENTPD2 ANTIBODIES, COMBINATION THERAPIES, AND METHODS OF USING THE ANTIBODIES AND COMBINATION THERAPIES” (Novartis AG, priority 2019, published 2022).
Some results were stated once for a whole list of compounds, not compound by compound.

T1: mouse ENTPD2 (Mus musculus, UniProt O55026)
T1 construct: expressed in transfected cells; host or cells: NIH/3T3 (retroviral transduction)
T1 sequence (O55026 1-495): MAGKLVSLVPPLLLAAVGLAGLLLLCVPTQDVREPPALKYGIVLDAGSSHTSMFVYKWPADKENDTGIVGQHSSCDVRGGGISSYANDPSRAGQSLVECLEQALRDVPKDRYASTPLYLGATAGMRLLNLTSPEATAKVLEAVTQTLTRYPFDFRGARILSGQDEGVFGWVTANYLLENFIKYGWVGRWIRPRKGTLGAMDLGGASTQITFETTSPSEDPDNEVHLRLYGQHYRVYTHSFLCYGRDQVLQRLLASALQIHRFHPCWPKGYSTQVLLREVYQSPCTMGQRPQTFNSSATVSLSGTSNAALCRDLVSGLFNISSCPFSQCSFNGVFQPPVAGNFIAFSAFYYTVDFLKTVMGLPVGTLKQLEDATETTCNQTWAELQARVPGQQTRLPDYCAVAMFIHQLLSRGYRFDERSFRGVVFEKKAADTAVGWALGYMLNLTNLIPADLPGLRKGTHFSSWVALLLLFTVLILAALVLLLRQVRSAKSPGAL


Molecular target: T1, mouse ENTPD2
Assay: Mouse ENTPD2 NIH/3T3 cell-based functional assay
Conditions: NIH3T3-mouse ENTPD2 engineered cell line
From the text: Biochemical and cell-based functional assays were developed in-house to understand functional impact of anti-ENTPD2 Abs against purified extracellular domain of ENTPD2 (residues 29-462), as well as against the fully intact protein in the context of the native cell-based conformation. ENTPD2 hydrolyzes ATP to ADP, which can subsequently be detected using the HTRF Transcreener ADP2 TR-FRET Red Assay (BellBrook Labs, Madison, Wis.) where ENTPD2-produced ADP would compete with the ADP Tracer for binding to the anti-ADP-Tb antibody. The resulting signal is inversely proportional to the concentration of ADP in the sample.
To establish cell-based functional assays, human/cyno/mouse ENTPD2-engineered NIH/3T3 cells or RKO (ATCC, Manassa Va.) colorectal cancer cells with endogenous ENTPD2 expression were plated overnight at 150, 200 and 250 cells per well for NIH/3T3 mouse, cyno and human ENTPD2 lines, respectively, or 1000 cells per well for RKO in 384-well tissue culture plate, in 30 μl per well (Perkin Elmer, Waltham, Mass.). […] ADP production was detected with the Transcreener ADP2 TR-FRET Red Assay (BellBrook Labs, Madison, Wis.) with a final concentration of 4 nM ADP2 antibody and 13.4 nM of ADP Tracer in wells (4× solution was prepared and 5 μL of “Detection Reagent Mix” was added to the quenched conditioned media). […]

Molecule | maximum target inhibition (mouse ENTPD2 inhibition)
mAb14: anti-mouse ENTPD2 antibody, T30 variant of mAb13; HC SEQ ID NO: 211, LC SEQ ID NO: 204 (antibody) heavy: QVQLVQSGAELKQPGQSVKISCKASGYTFWHYGMNWVKQAPGQGLKWMGWINTDTGNPTYADDFKGRFVFSLDTSVSTAYLQISNLKNEDTATYYCVRYGTLYSGYGFFFDSWGQGTLVTVSSAKTTAPSVYPLAPVCGDTTGSSVTLGCLVKGYFPEPVTLTWNSGSLSSGVHTFPAVLQSDLYTLSSSVTVTSSTWPSQSITCNVAHPASSTKVDKKIEPRGPTIKPCPPCKCPAPNLLGGPSVFIFPPKIKDVLMISLSPIVTCVVVDVSEDDPDVQISWFVNNVEVHTAQTQTHREDYNSTLRVVSALPIQHQDWMSGKEFKCKVNNKDLPAPIERTISKPKGSVRAPQVYVLPPPEEEMTKKQVTLTCMVTDFMPEDIYVEWTNNGKTELNYKNTEPVLDSDGSYFMYSKLRVEKKNWVERNSYSCSVVHEGLHNHHTTKSFSRTPGK light: DIMMTQSPSSLSVSAGEKATITCKSSQSLFNSNTNKNYLNWYLQKPGQSPKLLFYYASTRHTGVPDRFIGSGSGTDFTLTITSVQDEDLADYYCQQWYSYPWTFGPGTKLEIKRADAAPTVSIFPPSSEQLTSGGASVVCFLNNFYPKDINVKWKIDGSERQNGVLNSWTDQDSKDSTYSMSSTLTLTKDEYERHNSYTCEATHKTSTSPIVKSFNRNEC | 76-79%
mAb15: anti-mouse ENTPD2 antibody, T30 variant of mAb13; HC SEQ ID NO: 218, LC SEQ ID NO: 204 (antibody) heavy: QVQLVQSGAELKQPGQSVKISCKASGYTFHHYGMNWVKQAPGQGLKWMGWINTDTGNPTYADDFKGRFVFSLDTSVSTAYLQISNLKNEDTATYYCVRYGTLYSGYGFFFDSWGQGTLVTVSSAKTTAPSVYPLAPVCGDTTGSSVTLGCLVKGYFPEPVTLTWNSGSLSSGVHTFPAVLQSDLYTLSSSVTVTSSTWPSQSITCNVAHPASSTKVDKKIEPRGPTIKPCPPCKCPAPNLLGGPSVFIFPPKIKDVLMISLSPIVTCVVVDVSEDDPDVQISWFVNNVEVHTAQTQTHREDYNSTLRVVSALPIQHQDWMSGKEFKCKVNNKDLPAPIERTISKPKGSVRAPQVYVLPPPEEEMTKKQVTLTCMVTDFMPEDIYVEWTNNGKTELNYKNTEPVLDSDGSYFMYSKLRVEKKNWVERNSYSCSVVHEGLHNHHTTKSFSRTPGK light: DIMMTQSPSSLSVSAGEKATITCKSSQSLFNSNTNKNYLNWYLQKPGQSPKLLFYYASTRHTGVPDRFIGSGSGTDFTLTITSVQDEDLADYYCQQWYSYPWTFGPGTKLEIKRADAAPTVSIFPPSSEQLTSGGASVVCFLNNFYPKDINVKWKIDGSERQNGVLNSWTDQDSKDSTYSMSSTLTLTKDEYERHNSYTCEATHKTSTSPIVKSFNRNEC | 76-79%
